These are yes or no findings as the source states them, for the method shown. In cells and extracts the contact can be indirect. Some entries that bind do so weakly or less than the wild type. Where a sequence is shown, tags or fusion partners need not be part of it.

For two molecules, binding results are on record in publication PMC5027563, “Functional Recovery of AQP2 Recessive Mutations Through Hetero-Oligomerization with Wild-Type Counterpart” (Scientific Reports, 2016).

In experiment [1] the target is T1, GFP-tagged wild-type Aquaporin-2 (human, UniProt P41181 1-271).
T1 construct: Aquaporin-2 (AQP2), human, wild type, from pT7Ts-GFP-AQP2 (subcloned through the pAc-GFP vector); 58 kDa with GFP; also called GFP-wt-AQP2; GFP-tagged-WT; source: Xenopus laevis oocytes, cRNA injected; total membranes solubilised in 2% deoxycholate
T1 sequence (looked up): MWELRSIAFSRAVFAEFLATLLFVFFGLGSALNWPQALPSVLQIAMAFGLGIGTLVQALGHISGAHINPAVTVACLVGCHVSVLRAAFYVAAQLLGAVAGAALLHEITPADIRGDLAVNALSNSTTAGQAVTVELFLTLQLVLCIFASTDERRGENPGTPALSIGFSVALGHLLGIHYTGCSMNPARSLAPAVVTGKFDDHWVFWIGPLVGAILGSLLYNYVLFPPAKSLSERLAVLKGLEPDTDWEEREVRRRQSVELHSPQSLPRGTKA
In words: co-IP; Xenopus oocytes co-injected with 0.5 ng mRNA of an untagged AQP2 variant and 1 ng (equimolar) of a GFP-tagged form, 24 h; total membranes solubilised in 2% deoxycholate in PBS, 100,000 x g supernatant; IP with goat anti-GFP and protein-G magnetic beads at room temperature; blot with anti-AQP2 of the untagged 29 kDa band; densitometry in % of wt-AQP2, 4 assays.

In experiment [2] the target is T2, GFP-tagged Aquaporin-2 R187C (human) (UniProt P41181).
T2 sequence: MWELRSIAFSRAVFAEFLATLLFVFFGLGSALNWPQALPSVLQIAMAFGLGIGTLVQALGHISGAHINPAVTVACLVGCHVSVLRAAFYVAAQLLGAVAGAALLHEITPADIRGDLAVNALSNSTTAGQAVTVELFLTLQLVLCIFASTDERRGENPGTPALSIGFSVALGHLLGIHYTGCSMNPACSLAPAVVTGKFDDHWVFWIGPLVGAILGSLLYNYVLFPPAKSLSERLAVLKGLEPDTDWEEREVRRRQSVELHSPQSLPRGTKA
Described as above.

B1: wild-type Aquaporin-2 (untagged) (protein, UniProt P41181 1-271)
chain: MWELRSIAFSRAVFAEFLATLLFVFFGLGSALNWPQALPSVLQIAMAFGLGIGTLVQALGHISGAHINPAVTVACLVGCHVSVLRAAFYVAAQLLGAVAGAALLHEITPADIRGDLAVNALSNSTTAGQAVTVELFLTLQLVLCIFASTDERRGENPGTPALSIGFSVALGHLLGIHYTGCSMNPARSLAPAVVTGKFDDHWVFWIGPLVGAILGSLLYNYVLFPPAKSLSERLAVLKGLEPDTDWEEREVRRRQSVELHSPQSLPRGTKA
On to B1, for which the binding result in experiment [1] is reported as “binds”.

B2: Aquaporin-2 R187C (untagged) (natural protein, human, UniProt P41181 1-271, looked up)
chain: MWELRSIAFSRAVFAEFLATLLFVFFGLGSALNWPQALPSVLQIAMAFGLGIGTLVQALGHISGAHINPAVTVACLVGCHVSVLRAAFYVAAQLLGAVAGAALLHEITPADIRGDLAVNALSNSTTAGQAVTVELFLTLQLVLCIFASTDERRGENPGTPALSIGFSVALGHLLGIHYTGCSMNPACSLAPAVVTGKFDDHWVFWIGPLVGAILGSLLYNYVLFPPAKSLSERLAVLKGLEPDTDWEEREVRRRQSVELHSPQSLPRGTKA
Turning to B2, the binding result in experiment [2] and in experiment [1] was “no binding” in each case.
